# In PubChem BioAssay AID504467 (National Center for Advancing Translational Sciences (NCATS), 2011):
# The campaign covered roughly 330,000 compounds. About 7,700 (2.3%) were called active. Inconclusive means that the source gave no clear call. Such entries were picked first, then a sample of the others. The call rests on the fitted dose curve; in most records, active means well fitted inhibition curve with a large enough effect; inconclusive means small, poorly fitted or top-dose-only effect, or effect the other way; inactive means flat fitted curve, though single readings scatter. Where the call is inconclusive, the potency comes from a doubtful curve fit.
# Assay: qHTS screen for small molecules that inhibit ELG1-dependent DNA repair in human embryonic kidney (HEK293T) cells expressing luciferase-tagged ELG1; further: nearly all actives have a fitted effect of over 55% in size
# Details: HEK293T ELG1-luciferase reporter, luminescence, 16 h, DNA damage induced by 5-fluorouridine; activity change, negative = inhibition: at 46.1 µM (top of the series)
# In short: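 In this reporter screen, reduction of luminescence relative to DMSO vehicle indicated activity. Compounds and 5-fluorouridine were added together to 2,000 cells per well, incubated for 16 hr at 37 °C, then developed with ONE-Glo.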
# On the % scale 0 is the no-effect control and ±100 the full control effect; potency means the concentration at half of the fitted maximal effect.
SMILES,"activity change, negative = inhibition",Potency
Nc1nc(CN2CCC(Cc3ccccc3)CC2)nc(Nc2ccccc2)n1,inactive: -19.7%,–
Clc1ccc(-c2nnc(N3CCOCC3)o2)cc1,–,"inconclusive: 16.4 µM [activator, partial curve]"
Cc1cc(C(=O)COc2cccnc2[N+](=O)[O-])c(C)n1-c1ccccc1F,–,"inconclusive: 16.4 µM [activator, partial curve]"
O=C(c1cccc(NC2=NC3CS(=O)(=O)CC3S2)c1)N1CCN(c2cccc(Cl)c2)CC1 (stereo not given),inactive: -13.4%,–
CCCCCOc1ccc(Br)cc1/C(C)=N/NC1=NCCN1,–,"inconclusive: 5.17 µM [inhibitor, partial curve, poor fit]"
Cc1ccc(-n2c(SCC(=O)N/N=C/C=C/c3ccccc3[N+](=O)[O-])nc3ccccc3c2=O)cc1,–,"inconclusive: 2.91 µM [inhibitor, full curve]"
Cc1cccc(-n2c(SCC(=O)Nc3ncc(Cl)cc3Cl)nc3ccccc32)c1,inactive: 14.9%,–
COc1nc(C#N)nc(N(C)C)n1,–,"inconclusive: 16.4 µM [inhibitor, partial curve, poor fit]"
O=C(Nc1nnc(C2CC2)o1)c1ccc(S(=O)(=O)N2CCCc3ccccc32)cc1,–,active: 7.31 µM
COC(=O)c1ccc(N2CCCCC2)c(NS(=O)(=O)c2ccc(C)cc2)c1,inactive: -7.65%,–
COc1cc(C)ccc1OC(C)C(=O)Nc1ccc(N2CCCCC2)cc1 (stereo not given),inactive: -18.6%,–
COC(=O)[C@]1(C)N[C@H](CN(C)C(=O)c2ccccc2)[C@@H]2C(=O)N(Cc3ccccc3)C(=O)[C@@H]21,inactive: 5.93%,–
COc1ccc(C2c3c(-c4ccccc4O)n[nH]c3C(=O)N2CCc2ccc(OC)c(OC)c2)cc1 (stereo not given),–,active: 2.82 µM
CN(C)S(=O)(=O)N1CCC(Oc2ccc(C(=O)NC3CCCCC3)cc2)CC1,–,"inconclusive: 23.1 µM [inhibitor, single point]"
Cc1ccc(NC(=O)c2n[nH]c(=O)c3ccccc23)cc1S(=O)(=O)N1CCOCC1,–,"inconclusive: 29.1 µM [inhibitor, single point]"
Cc1ccc(CN(C)c2ccc(S(=O)(=O)N3CCCC3)cn2)cc1,–,"inconclusive: 18.3 µM [inhibitor, single point]"
COc1ccc(CCNC(=O)CCSCc2ccccc2F)cc1OC,inactive: 0.215%,–
COc1ccc(CCNC(=O)c2ccccc2)cc1,–,"inconclusive: 35.5 µM [activator, partial curve, poor fit]"
CCOC(=O)c1ccc(NC(=O)Cn2cnc3cc(C)c(C)cc32)cc1,–,"inconclusive: 2.31 µM [inhibitor, partial curve]"
COc1ccc(CCNC(=O)c2cccs2)cc1,–,"inconclusive: 20.6 µM [activator, partial curve, poor fit]"

# Retrieved by structure from the entries so far:
SMILES,"activity change, negative = inhibition",Potency
COc1nc(C#N)nc(N(C)C)n1,–,"inconclusive: 16.4 µM [inhibitor, partial curve, poor fit]"
Cc1cc(C(=O)COc2cccnc2[N+](=O)[O-])c(C)n1-c1ccccc1F,–,"inconclusive: 16.4 µM [activator, partial curve]"
